Changes are numbered by the printed parent chain. Results are given in words; binding and its absence hold for the method and conditions named. In cells and extracts the contact can be indirect. Some entries that bind do so weakly or less than the wild type. Sequences can lack the tags named with a protein.

Chains of the proteins cited; added tags and fusions are not shown.
UniProt P46937: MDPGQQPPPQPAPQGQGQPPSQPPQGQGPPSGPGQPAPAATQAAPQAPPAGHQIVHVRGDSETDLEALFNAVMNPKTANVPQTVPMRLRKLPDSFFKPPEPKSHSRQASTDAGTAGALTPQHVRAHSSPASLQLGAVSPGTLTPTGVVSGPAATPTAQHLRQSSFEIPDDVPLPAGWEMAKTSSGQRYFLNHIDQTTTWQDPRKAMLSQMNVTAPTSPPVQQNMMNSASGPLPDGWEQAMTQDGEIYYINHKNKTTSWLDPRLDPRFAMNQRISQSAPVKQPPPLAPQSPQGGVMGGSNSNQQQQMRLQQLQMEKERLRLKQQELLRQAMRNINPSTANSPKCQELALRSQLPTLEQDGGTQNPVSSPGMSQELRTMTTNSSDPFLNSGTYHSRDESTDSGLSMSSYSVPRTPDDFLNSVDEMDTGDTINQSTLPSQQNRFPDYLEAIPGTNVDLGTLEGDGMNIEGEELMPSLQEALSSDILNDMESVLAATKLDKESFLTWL

The target in assay [1] is T1, HA-Amot-p130 (mouse (by the paper's numbering: Ser176 in mouse, Ser175 in human)) (UniProt Q8VHG2).
T1 sequence: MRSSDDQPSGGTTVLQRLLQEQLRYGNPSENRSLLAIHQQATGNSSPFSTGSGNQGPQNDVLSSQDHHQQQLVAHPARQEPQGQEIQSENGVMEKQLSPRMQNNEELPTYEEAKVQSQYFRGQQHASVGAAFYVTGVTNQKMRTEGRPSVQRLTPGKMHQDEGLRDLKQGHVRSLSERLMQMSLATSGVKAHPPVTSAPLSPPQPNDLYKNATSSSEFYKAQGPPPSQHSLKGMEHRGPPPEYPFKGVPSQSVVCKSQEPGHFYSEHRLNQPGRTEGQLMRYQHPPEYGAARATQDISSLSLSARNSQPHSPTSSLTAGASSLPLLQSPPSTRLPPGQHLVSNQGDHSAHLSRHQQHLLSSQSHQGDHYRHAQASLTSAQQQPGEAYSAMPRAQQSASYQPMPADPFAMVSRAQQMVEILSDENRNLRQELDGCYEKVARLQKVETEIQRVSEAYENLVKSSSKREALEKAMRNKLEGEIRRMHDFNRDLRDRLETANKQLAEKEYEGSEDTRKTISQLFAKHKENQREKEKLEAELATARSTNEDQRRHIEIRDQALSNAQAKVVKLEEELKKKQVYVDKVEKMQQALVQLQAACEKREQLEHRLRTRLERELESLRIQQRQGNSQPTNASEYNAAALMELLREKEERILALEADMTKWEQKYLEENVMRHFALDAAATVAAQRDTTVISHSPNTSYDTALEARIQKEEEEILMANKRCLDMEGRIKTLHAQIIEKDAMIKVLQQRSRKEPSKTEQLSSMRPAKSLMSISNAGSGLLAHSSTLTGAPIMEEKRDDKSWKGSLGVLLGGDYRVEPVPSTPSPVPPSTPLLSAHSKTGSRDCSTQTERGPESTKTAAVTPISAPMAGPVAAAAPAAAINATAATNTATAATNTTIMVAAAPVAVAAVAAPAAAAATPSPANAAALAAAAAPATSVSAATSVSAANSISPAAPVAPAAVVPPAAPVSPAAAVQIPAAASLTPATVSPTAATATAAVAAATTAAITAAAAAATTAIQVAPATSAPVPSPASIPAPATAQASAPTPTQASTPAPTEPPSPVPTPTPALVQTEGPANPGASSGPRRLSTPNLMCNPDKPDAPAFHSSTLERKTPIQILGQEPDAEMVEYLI
Briefly: co-IP; HEK293-shAmot cells co-transfected with YAP and an Amot allele, fractionated into cytoplasmic, nuclear and plasma membrane fractions; Amot IP of each fraction, anti-YAP immunoblot. Background: In western blotting, separated proteins are transferred to a membrane and probed.

For assay [2], the target named is T2, HA-Amot-p130^S176A (mouse (by the paper's numbering: Ser176 in mouse, Ser175 in human)) (UniProt Q8VHG2).
T2 sequence: T1 sequence with S176A
Described as above.

Turning to “V5-tagged YAP (from UniProt P46937 1-504)”, the binding entry in assay [1] and in assay [2] was “binds” each time.

(Values after paper PMC5415356.)
